Test results from the supplement of paper PMC4683952.
Structures can show the parent of a compound that is named as a salt. Some of the results follow. Cut-off read from the data, not from the text of the source: active = 2.5 or more and inactive = the rest. Single values are uncertain here, since repeats match poorly.

test system: Lgr5 (MarsCy1-Lgr5-EGFP, U2OS); assay: cell-surface Lgr5 expression (SCi1 fluorescence, background-subtracted) relative to WT control (fold of WT control); higher = more Lgr5 at the plasma membrane; settings: U2OS MarsCy1-Lgr5-EGFP stable; treatment time: overnight; library: Prestwick; 20 µM

| Compound | cell-surface Lgr5 expression |
| --- | --- |
| CC(C)NCC(O)c1cc(O)cc(O)c1 (configuration not stated) [Metaproterenol sulfate, orciprenaline sulfate] | active: 3.51 |
| C#CCN(C)CCCOc1ccc(Cl)cc1Cl [Clorgyline hydrochloride] | inactive: 1.45 |
| O=C(O)CN(CCN(CC(=O)O)CC(=O)O)CCN(CC(=O)O)CC(=O)O [Pentetic acid] | inactive: 2.03 |
| Cn1c(=O)c2c(ncn2CCO)n(C)c1=O [Etofylline] | inactive: 1.27 |
| O=C1OC(CN2CCOCC2)CN1/N=C/c1ccc([N+](=O)[O-])o1 (configuration not stated) [Furaltadone hydrochloride] | active: 3.81 |
| CNCCCN1c2ccccc2CCc2ccccc21 [Desipramine hydrochloride] | inactive: 1.2 |
| O=C(O)[C@]1(O)C[C@@H](O)[C@@H](O)[C@H](O)C1 [Quinic acid] | inactive: 1.7 |
| Cc1cccc(Nc2ccccc2C(=O)O)c1C [Mefenamic acid] | inactive: 1.12 |
| C[n+]1ccccc1/C=N/O [Pralidoxime chloride] | inactive: 2.1 |
| CCN(CC)CCNC(=O)COc1ccc(OC)cc1 [Mefexamide hydrochloride] | inactive: 1.58 |
| Clc1ccc(C(Cn2ccnc2)OCc2csc3c(Cl)cccc23)c(Cl)c1 (configuration not stated) [Sertaconazole nitrate] | inactive: 1.21 |
| CC(=O)OCC1=C(C(=O)O)N2C(=O)[C@@H](NC(=O)Cc3cccs3)[C@H]2SC1 [Cephalothin sodium salt] | inactive: 1.62 |
| CC1(C)S[C@@H]2[C@H](NC(=O)Cc3ccccc3)C(=O)N2[C@H]1C(=O)O [Benzathine benzylpenicillin] | inactive: 1.28 |
| CC1(C)S[C@@H]2[C@H](NC(=O)Cc3ccccc3)C(=O)N2[C@H]1C(=O)O [Benzylpenicillin sodium] | inactive: 0.762 |
| O=C1CCC(N2C(=O)c3ccccc3C2=O)C(=O)N1 (configuration not stated) [Thalidomide] | inactive: 2.19 |
| NCC[C@H](O)C(=O)N[C@@H]1C[C@H](N)[C@@H](O[C@H]2O[C@H](CN)[C@@H](O)[C@H](O)[C@H]2O)[C@H](O)[C@H]1O[C@H]1O[C@H](CO)[C@@H](O)[C@H](N)[C@H]1O [Amikacin hydrate] | inactive: 0.933 |
| CN1CCC(OC(c2ccccc2)c2ccccc2)CC1 [Diphenylpyraline hydrochloride] | inactive: 1.61 |
| Fc1ccc([C@@H]2CCNC[C@H]2COc2ccc3c(c2)OCO3)cc1 [Paroxetine Hydrochloride] | inactive: 1.8 |
| CN(C)CCCN1c2ccccc2CCc2ccccc21 [Imipramine hydrochloride] | inactive: 1.12 |
| NC(CO)C(=O)NNCc1ccc(O)c(O)c1O (configuration not stated) [Benserazide hydrochloride] | inactive: 2.03 |
| NCCC[C@H](N)CC(=O)N[C@H]1CNC(=O)[C@H]([C@H]2C[C@H](O)NC(N)=N2)NC(=O)/C(=C/NC(N)=O)NC(=O)[C@H](CO)NC(=O)[C@H](CO)NC1=O [Viomycin sulfate] | inactive: 1.65 |
| O=C(O)CCCC[C@@H]1SC[C@@H]2NC(=O)N[C@@H]21 [Biotin] | inactive: 1.16 |
| C[C@@]1(O)CCOC(=O)C1 [Mevalonic-D, L acid lactone] | inactive: 2.37 |

Retrieved one by one from above, 3 records:

| Compound | cell-surface Lgr5 expression |
| --- | --- |
| CCN(CC)CCNC(=O)COc1ccc(OC)cc1 [Mefexamide hydrochloride] | inactive: 1.58 |
| CC(C)NCC(O)c1cc(O)cc(O)c1 (configuration not stated) [Metaproterenol sulfate, orciprenaline sulfate] | active: 3.51 |
| O=C1OC(CN2CCOCC2)CN1/N=C/c1ccc([N+](=O)[O-])o1 (configuration not stated) [Furaltadone hydrochloride] | active: 3.81 |

Additional entries.

| Compound | cell-surface Lgr5 expression |
| --- | --- |
| COCC(=O)Nc1c(I)c(C(=O)NCC(O)CO)c(I)c(C(=O)N(C)CC(O)CO)c1I (configuration not stated) [Iopromide] | inactive: 2.39 |
| CC1COc2c(N3CCN(C)CC3)c(F)cc3c(=O)c(C(=O)O)cn1c23 (configuration not stated) [Ofloxacin] | inactive: 1.14 |
| C[C@H](CCC(=O)O)[C@H]1CC[C@H]2[C@@H]3CC[C@@H]4C[C@H](O)CC[C@]4(C)[C@H]3CC[C@]12C [Lithocholic acid] | active: 2.6 |
| CC(=O)SCC(Cc1ccccc1)C(=O)NCC(=O)OCc1ccccc1 (configuration not stated) [Racecadotril] | inactive: 2.08 |
| COC(=O)C1=C(C)NC(C)=C(C(=O)OC(C)C)C1c1cccc2nonc12 (configuration not stated) [Isradipine] | inactive: 1.08 |
| Cn1cnc([N+](=O)[O-])c1Sc1ncnc2[nH]cnc12 [Azathioprine] | active: 3.3 |
| COc1c2c(nc3ccccc13)OC(C(C)(O)CO)C2 (configuration not stated) [Dubinidine] | inactive: 1.31 |
| CC(C)C(=O)Nc1ccc([N+](=O)[O-])c(C(F)(F)F)c1 [Flutamide] | inactive: 0.695 |
| CN1Cc2c(N)cccc2C(c2ccccc2)C1 (configuration not stated) [Nomifensine maleate] | inactive: 1.1 |
| CCN[C@@H]1C[C@H](N)[C@@H](O[C@H]2OC(CN)=CC[C@H]2N)[C@H](O)[C@H]1O[C@H]1OC[C@](C)(O)[C@H](NC)[C@H]1O [Netilmicin sulfate] | inactive: 1.65 |
| c1ccc(CNc2ncnc3nc[nH]c23)cc1 [Aminopurine, 6-benzyl] | inactive: 2.06 |
| CCOC(=O)[C@@](C)(N)Cc1ccc(O)c(O)c1 [Methyldopate hydrochloride] | inactive: 1.26 |
| O=C(c1ccccc1)c1ccc2n1CCC2C(=O)O (configuration not stated) [Ketorolac tromethamine] | inactive: 1.76 |
| COc1ccccc1OCC(O)COC(N)=O (configuration not stated) [Methocarbamol] | inactive: 1.47 |
| Cc1cc(N)c2ccccc2[n+]1CCCCCCCCCC[n+]1c(C)cc(N)c2ccccc21 [Dequalinium dichloride] | inactive: 1.25 |
| CC[C@@H](CO)NCCN[C@@H](CC)CO [Ethambutol dihydrochloride] | inactive: 1.06 |
| CC(=O)OCC(=O)[C@@]1(OC(C)=O)[C@@H](C)C[C@H]2[C@@H]3C[C@H](F)C4=CC(=O)C=C[C@]4(C)[C@@]3(F)[C@@H](O)C[C@@]21C [Diflorasone Diacetate] | active: 3.65 |
| CCCOc1ccc(C(=O)OCCN(CC)CC)cc1N [Proparacaine hydrochloride] | active: 3.5 |
| C#C[C@]1(O)CC[C@H]2[C@@H]3CCC4=CC(=O)CC[C@@H]4[C@H]3CC[C@@]21CC [Norgestrel-(-)-D] | inactive: 1.93 |
| N=C(N)NCCN1CCCCCCC1 [Guanethidine sulfate] | inactive: 0.874 |
| CC1(C)[C@@H](OC(=O)CCC(=O)O)CC[C@]2(C)[C@H]3C(=O)C=C4[C@@H]5C[C@@](C)(C(=O)O)CC[C@]5(C)CC[C@@]4(C)[C@]3(C)CC[C@@H]12 [Carbenoxolone disodium salt] | active: 4.26 |
| CC(CN(C)C)CN1c2ccccc2Sc2ccccc21 (configuration not stated) [Trimeprazine tartrate] | inactive: 1.65 |
| C=CCOC(Cn1ccnc1)c1ccc(Cl)cc1Cl (configuration not stated) [Enilconazole] | inactive: 1.89 |

| Compound | cell-surface Lgr5 expression |
| --- | --- |
| O=C(/C=C/c1ccc(O)c(O)c1)O[C@@H]1C[C@](O)(C(=O)O)C[C@@H](O)[C@H]1O [Chlorogenic acid] | inactive: 1.88 |
| c1ccc(CN(CC2=NCCN2)c2ccccc2)cc1 [Antazoline hydrochloride] | inactive: 1.25 |
| CC(C(=O)O)c1ccc(C(=O)c2ccccc2)s1 (configuration not stated) [Tiaprofenic acid] | inactive: 0.25 |
| CC(=O)N(CC(O)CN(C(C)=O)c1c(I)c(C(=O)NCC(O)CO)c(I)c(C(=O)NCC(O)CO)c1I)c1c(I)c(C(=O)NCC(O)CO)c(I)c(C(=O)NCC(O)CO)c1I (configuration not stated) [Iodixanol] | inactive: 1.59 |
| C=CCSCC1Nc2cc(Cl)c(S(N)(=O)=O)cc2S(=O)(=O)N1 (configuration not stated) [Althiazide] | inactive: 2.37 |
| CCN(CC)CCOC(=O)C(c1ccccc1)c1ccccc1 [Adiphenine hydrochloride] | inactive: 1.75 |
| OC(CCCN1CCCCC1)(c1ccccc1)c1ccccc1 [Diphenidol hydrochloride] | inactive: 0.138 |
| C[C@]12CC[C@@H]3c4ccc(OS(=O)(=O)O)cc4CC[C@H]3[C@@H]1CCC2=O [Estropipate] | inactive: 1.73 |
| Cc1ccc(S(=O)(=O)NC(=O)NN2CCCCCC2)cc1 [Tolazamide] | inactive: 1.65 |
| Cc1ccsc1/C=C/C1=NCCCN1C [Morantel tartrate] | inactive: 1.11 |
| CN(C)c1ccc(O)c2c1C[C@H]1C[C@H]3[C@H](N(C)C)C(O)=C(C(N)=O)C(=O)[C@@]3(O)C(O)=C1C2=O [Minocycline hydrochloride] | inactive: 0.881 |
| CCN(CC)CCNc1ccc(CO)c2sc3ccccc3c(=O)c12 [Hycanthone] | active: 2.81 |
| CNC(C)CCC=C(C)C (configuration not stated) [Isometheptene mucate] | inactive: 1.51 |
| O=C(COc1ccc(Cl)cc1)N1CCN(Cc2ccc3c(c2)OCO3)CC1 [Fipexide hydrochloride] | inactive: 0.881 |
| CN(Cc1cnc2nc(N)nc(N)c2n1)c1ccc(C(=O)N[C@@H](CCC(=O)O)C(=O)O)cc1 [Methotrexate] | inactive: 0.718 |
| CN(Cc1cnc2nc(N)nc(N)c2n1)c1ccc(C(=O)N[C@@H](CCC(=O)O)C(=O)O)cc1 (racemic) [Amethopterin (R,S)] | inactive: 1.13 |
| CC1=C(/C=C/C(C)=C/C=C/C(C)=C\C(=O)O)C(C)(C)CCC1 [Isotretinoin] | inactive: 1.33 |
| CC/C(=C(/CC)c1ccc(O)cc1)c1ccc(O)cc1 [Diethylstilbestrol] | inactive: 1.85 |
| CSc1ccc2c(c1)N(CCC1CCCCN1C)c1ccccc1S2 (configuration not stated) [Thioridazine hydrochloride] | inactive: 1.03 |
| Cc1cc(-c2ccccc2)nnc1NCCN1CCOCC1 [Minaprine dihydrochloride] | inactive: 1.31 |
| NC(N)=Nc1nc(CSCC/C(N)=N/S(N)(=O)=O)cs1 [Famotidine] | inactive: 1.07 |
